Laboratory results: PubChem BioAssay AID1259308 (NCATS, 2017)
This is a random part of about 59,000 deposited reagents. Over the whole deposit, about 1,510 (2.6%) are marked active. 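Calls use total luciferase alone and ignore viability, so some active siRNAs may act by altering cell number.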 A number with no mark means an inactive call. The numbers tell different reagents against one gene apart. Further read-outs or replicates are left out here.

- Test: 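Genes whose loss raises luciferase production in HEK293 cells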 (primary screen)
- Cell system: human HEK293 embryonic kidney cells stably expressing firefly luciferase (HEK-CMV-Luc2-Hygro)
- Reagent: single siRNA against human genes, 0.8 pmol siRNA per well
- Timing: 72 h
- Read-out: 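Reporter luminescence and viable-cell signal on separate replicate plates, given as percent of non-targeting control and median/MAD z-scores, plus per-cell luciferase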
- Direction: total luciferase, z-score and total luciferase, % of control: higher = more reporter protein produced; luciferase per cell, z-score: higher = more reporter output per viable cell
- Active means: 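An siRNA counts as active if its total luciferase robust z-score exceeds 3; genes with two or more such siRNAs out of three were retested with fresh siRNAs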
- Meaning of the calls: active = raised luciferase; inactive = no rise

Gene | siRNA no. | total luciferase, z-score | total luciferase, % of control | luciferase per cell, z-score
FBXL17 (F-box and leucine rich repeat protein 17) | 1 | -0.44 | 73.1 | 0.842
FBXL17 (F-box and leucine rich repeat protein 17) | 2 | 0.69 | 95.6 | 0.312
FBXL17 (F-box and leucine rich repeat protein 17) | 3 | -0.48 | 72.3 | 0.0576
INPP5B (inositol polyphosphate-5-phosphatase B) | 1 | 0.566 | 93.1 | 1.09
INPP5B (inositol polyphosphate-5-phosphatase B) | 2 | -0.0685 | 80.5 | -0.482
INPP5B (inositol polyphosphate-5-phosphatase B) | 3 | 1.28 | 107 | 0.272
ZRSR2 | 1 | 0.204 | 85.9 | -0.745
ZRSR2 | 2 | 0.651 | 94.8 | -0.216
ZRSR2 | 3 | 1.21 | 106 | 0.642
BRAT1 (BRCA1 associated ATM activator 1) | 1 | 3.21 (active) | 146 | 2.47
BRAT1 (BRCA1 associated ATM activator 1) | 2 | 2.04 | 122 | 1.57
BRAT1 (BRCA1 associated ATM activator 1) | 3 | -0.381 | 74.3 | -0.54
OLIG2 (oligodendrocyte transcription factor 2) | 1 | -0.487 | 72.2 | -0.000356
OLIG2 (oligodendrocyte transcription factor 2) | 2 | 0.103 | 83.9 | 0.292
OLIG2 (oligodendrocyte transcription factor 2) | 3 | -0.429 | 73.4 | -0.945
RBPJ | 1 | -0.178 | 78.3 | -0.395
RBPJ | 2 | -1.15 | 59 | -0.95
RBPJ | 3 | 0.692 | 95.7 | -0.183
TASP1 (taspase 1) | 1 | -1.13 | 59.4 | -0.867
TASP1 (taspase 1) | 2 | -0.478 | 72.4 | -0.487
TASP1 (taspase 1) | 3 | -0.548 | 71 | -0.62
YIPF1 (Yip1 domain family member 1) | 1 | 1.46 | 111 | 1.3
YIPF1 (Yip1 domain family member 1) | 2 | -2.81 | 25.9 | -3.15
YIPF1 (Yip1 domain family member 1) | 3 | -0.717 | 67.6 | -0.849

Entries listed above marked active (1):
Gene | siRNA no. | total luciferase, z-score | total luciferase, % of control | luciferase per cell, z-score
BRAT1 (BRCA1 associated ATM activator 1) | 1 | 3.21 (active) | 146 | 2.47
